38 compounds from paper PMC12670160, “A drug-repurposing screen of FDA- and EMA-approved drugs identifies two NF-κB inhibitors active against eumycetoma” (Journal of Antimicrobial Chemotherapy, 2025) can be followed below.

Structures can show the parent of a compound that is named as a salt. About 130 (2.5%) of roughly 5,300 compounds showed an effect of 50% or more. This is one part of the list. Peptide text beside a SMILES is read from it.

The experiment concerns M. mycetomatis strain mm55. The settings on record: primary screen, metabolic activity vs growth control; 96 h, 2 µM; inhibitor.
As to `CN(C)CCCNC(=O)c1ccc(-c2cc(O)c3ncccc3c2)cc1` [ONC0001031, ml324], the “% viability” value came out at 68.82%. Next, `COC(=O)[C@H]1[C@@H](C)[C@@H](OC)C=CO[C@@]2(C)Oc3c(C)c(O)c4c(O)c(cc(O)c4c3C2=O)NC(=O)/C(C)=C\C=C/[C@@H](C)[C@@H](O)[C@@H](C)[C@H](O)[C@@H]1C` [ONC0003453, rifamycin sv sodium salt]: 53.39%; `CN[C@@H](C)[C@H]1[C@H](O)C[C@@]2(C)[C@@H]3CC[C@H]4C(C)(C)[C@@H](NC)CC[C@@]45C[C@@]35CC[C@]12C` [ONC0004659, cyclovirobuxin d bebuxine]: 83.37%. With `CN1CCN(CCCN2c3ccccc3Sc3ccc(S(=O)(=O)N(C)C)cc32)CC1` [ONC0002303, thioproperazine], the “% viability” value is on record as 65.7%. Next, `O=c1[nH]c(=O)n([C@H]2CCCO2)cc1F` [ONC0004801, tegafur ft207 nsc 148958]: 103%; `C[C@@H]1CC[C@@]2(NC1)O[C@H]1C[C@H]3[C@@H]4CC=C5C[C@@H](O[C@@H]6O[C@H](CO)[C@@H](O[C@@H]7O[C@@H](C)[C@H](O)[C@@H](O)[C@H]7O)[C@H](O)[C@H]6O[C@@H]6O[C@@H](C)[C@H](O)[C@@H](O)[C@H]6O)CC[C@]5(C)[C@H]4CC[C@]3(C)[C@H]1[C@@H]2C` [ONC0001969, solamargine]: 78.42%; `O=C(Nc1cc(Cl)cc(Cl)c1O)c1c(O)c(Cl)cc(Cl)c1Cl` [ONC0004299, oxyclozanide]: 65.63%. Turning to `O=C(O)Cc1ccccc1Nc1c(Cl)cccc1Cl` [ONC0000586, diclofenac sodium], the “% viability” value was 89.74%. Next, `C[C@@H](c1ncncc1F)[C@](O)(Cn1cncn1)c1ccc(F)cc1F` [Voriconazole]: 2.12%; `Cc1nn(C)c2nc(NNC(=O)Nc3cc(Cl)nc(Cl)c3)cc(C(C)C)c12` [ONC0003603, jte013]: 86.58%; `CC(C)Cc1ccc([C@H](C)C(=O)O)cc1` [ONC0003786, dexibuprofen]: 58.31%. For `CO/N=C(\C(=O)N[C@@H]1C(=O)N2C(C(=O)[O-])=C(C[n+]3ccn4ncccc43)CS[C@H]12)c1nsc(N)n1` [ONC0002043, cefozopran hydrochloride], the “% viability” value came out at 83.34%. Next, `CS(=O)(=O)c1ccc([C@@H](O)[C@@H](CO)NC(=O)C(Cl)Cl)cc1` [ONC0002832, thiamphenicol]: 90.05%; `Cc1cncc(CN2CCC(=C3c4ccc(Cl)cc4CCc4cccnc43)CC2)c1` [ONC0005226, rupatadine fumarate]: 94.75%.

As to `O=C1NCCNC1c1cccs1` (centres unmarked) [ONC0003813, tenilsetam], the “% viability” value came out at 64.62%. Next, `O=c1[nH]cc(F)c(=O)[nH]1` [ONC0000498, fluorouracil]: 116.2%; `NCCc1c[nH]c2ccc(O)cc12` [ONC0002500, serotonin]: 72.63%. Next, `CC(=O)Oc1c(C)cccc1C(=O)O` [ONC0005475, cresopirine]: 103%; `N=c1ccn2c(n1)O[C@H]1[C@H](O)[C@@H](CO)O[C@H]12` [ONC0004679, cyclocytidine hcl]: 111.1%; `CCCCCCCC/C=C\CCCCCCCC(=O)NCc1ccc(O)c(OC)c1` [ONC0002688, olvanil]: 63.91%. Next, `CC(=O)Oc1cc(C(F)(F)F)ccc1C(=O)O` [ONC0001220, triflusal]: 89.02%; `CO[C@@]1(NC(=O)C2SC(=C(C(N)=O)C(=O)O)S2)C(=O)N2C(C(=O)O)=C(CSc3nnnn3C)CS[C@@H]21` (some centres unmarked) [ONC0000577, cefotetan]: 93.81%. Take `CN(C)CCCN1c2ccccc2CCc2ccc(Cl)cc21` [ONC0005294, clomipramine hydrochloride]: the “% viability” value was 58.67%. Next, `O=C1CCC(c2ccccc2)(C2CCN(Cc3ccc(I)cc3)CC2)C(=O)N1` (centres unmarked) [ONC0001923, iododexetimide]: 70.47%; `COC(=O)N1CCN(Cc2cccc(NC(=O)Nc3ccc(C)nc3)c2F)CC1` [ONC0005089, omecamtiv mecarbil ck1827452]: 72.22%; `Cc1cc(C(C)(C)CC(C)(C)C)ccc1OCCOCC[N+](C)(C)Cc1ccccc1` [ONC0003144, methylbenzethonium chloride]: 72.5%. Next, `CC(=O)N[C@@H](CC(=O)O)C(=O)N[C@@H](CCC(=O)O)C(=O)O` [ONC0002793, spaglumicacid] (Ac-Asp-Glu-OH): 131.8%; `O=C(Nc1c(-c2cccs2)nc2ccccn12)c1ccc(Cl)cc1` [ONC0000138, ds2806622]: 88.21%; `NCC1CC(=O)N(Cc2ccccc2)C1` (centres unmarked) [ONC0003741, nebracetam]: 99.4%. Take `c1cc(-c2sc(-c3ccncc3)c(-c3ccncc3)c2-c2ccncc2)ccn1` [ONC0001680, gant58]: the “% viability” value was 60.63%. Next, `O=C(Nc1cc(-c2ccccc2)nn1-c1ccccc1)c1ccc([N+](=O)[O-])cc1` [ONC0000214, vu29]: 59.45%. Next, `O=C1c2ccccc2C(=O)c2ccccc21` [ONC0002912, anthraquinone]: 73.56%; `Nc1nccc(-c2c(-c3ccc(F)cc3)ncn2C2CCCCC2)n1` [ONC0001584, pf670462]: 67.14%; `Nc1ccc(O)c(C(=O)O)c1` [ONC0002803, mesalamine lialda]: 82.25%. In the case of `Clc1ccccc1CN1CCc2sccc2C1` [ONC0004074, ticlopidine hydrochloride], the “% viability” value is listed as 116.9%. Next, `CCC(=O)O[C@H](CC(=O)O)C[N+](C)(C)C` [ONC0001066, levocarnitine propionate hydrochloride]: 85.71%; `Ic1cc(-c2ccccc2)ncn1` [ONC0001546, 4iodo6phenylpyrimidine]: 86.82%.

Consider `CCN(CC)CCOC(=O)C1(c2ccc([N+](=O)[O-])cc2)CCCC1` [ONC0003594, nitrocaramiphen], for which the “% viability” value was determined as 88.48%.
